Four molecules from article PMC12224427 can be followed below.

The target of assay [1] is T1, Flag-tagged 6-phosphogluconate dehydrogenase (6PGD) (UniProt P52209).
T1 sequence: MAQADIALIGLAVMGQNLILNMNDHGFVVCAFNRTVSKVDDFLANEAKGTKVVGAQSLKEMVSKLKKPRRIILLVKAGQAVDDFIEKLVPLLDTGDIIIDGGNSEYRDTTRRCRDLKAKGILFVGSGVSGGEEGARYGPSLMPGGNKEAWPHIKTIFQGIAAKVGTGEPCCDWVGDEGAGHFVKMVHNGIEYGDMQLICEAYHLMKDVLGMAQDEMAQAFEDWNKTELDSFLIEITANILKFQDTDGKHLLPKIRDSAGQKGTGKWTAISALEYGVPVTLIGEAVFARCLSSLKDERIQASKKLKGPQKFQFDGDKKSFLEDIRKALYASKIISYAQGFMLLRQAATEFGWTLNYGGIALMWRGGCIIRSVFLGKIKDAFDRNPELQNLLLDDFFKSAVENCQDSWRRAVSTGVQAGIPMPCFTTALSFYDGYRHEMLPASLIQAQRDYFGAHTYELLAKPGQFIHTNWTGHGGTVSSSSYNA
Nature of the assay: co-IP; 6PGD Flag pull-down from HCT116, HCT8 and LoVo cells, western blotting of m6A-related proteins.

Assay [2] deals with ALKBH5, endogenous (human (endogenous in HCT116, HCT8, LoVo)) (UniProt Q6P6C2). Nature of the assay: co-IP; in vivo Co-IP of endogenous 6PGD and endogenous ALKBH5 in HCT116 and LoVo cells.
Assay [3] concerns the target Flag-tagged ALKBH5 WT (1-394) (UniProt Q6P6C2). Nature of the assay: co-IP; in vivo Flag pull-down of Flag-ALKBH5 (WT in HCT116 and LoVo; WT and truncation mutants in HCT116, extracts immunoprecipitated with Flag antibody), western blotting for 6PGD. For orientation: Immunoblotting shows a protein as a band on a membrane.
Assay [4] addresses T2, Flag-tagged ALKBH5 truncation mutant T1 (114–274) (UniProt Q6P6C2).
T2 sequence: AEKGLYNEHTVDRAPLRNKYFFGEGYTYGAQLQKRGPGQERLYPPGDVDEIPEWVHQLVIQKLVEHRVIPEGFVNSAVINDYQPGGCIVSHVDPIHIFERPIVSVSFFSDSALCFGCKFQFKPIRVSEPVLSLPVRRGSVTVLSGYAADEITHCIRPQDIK
Described as above.

In assay [5] the target is recombinant ALKBH5 (reALKBH5; aa:66–292) (UniProt Q6P6C2). The experiment in a line: co-IP; in vitro Co-IP binding assay with recombinant 6PGD and recombinant ALKBH5; both purified.

Where a chain is given by its changes, count along the chain named. Names may count otherwise. Results are given in words; binding and its absence hold for the method and conditions named. For part of these data: In cells and extracts the contact can be indirect. Some binding calls cover weakened binding; strength is not graded here. For part of these data: Tags and fused reporters may be left off the sequences shown.

B1: METTL14, endogenous (protein, UniProt Q9HCE5 1-456)
chain: MDSRLQEIRERQKLRRQLLAQQLGAESADSIGAVLNSKDEQREIAETRETCRASYDTSAPNAKRKYLDEGETDEDKMEEYKDELEMQQDEENLPYEEEIYKDSSTFLKGTQSLNPHNDYCQHFVDTGHRPQNFIRDVGLADRFEEYPKLRELIRLKDELIAKSNTPPMYLQADIEAFDIRELTPKFDVILLEPPLEEYYRETGITANEKCWTWDDIMKLEIDEIAAPRSFIFLWCGSGEGLDLGRVCLRKWGYRRCEDICWIKTNKNNPGKTKTLDPKAVFQRTKEHCLMGIKGTVKRSTDGDFIHANVDIDLIITEEPEIGNIEKPVEIFHIIEHFCLGRRRLHLFGRDSTIRPGWLTVGPTLTNSNYNAETYASYFSAPNSYLTGCTEEIERLRPKSPPPKSKSDRGGGAPRGGGRGGTSAGRGRERNRSNFRGERGGFRGGRGGAHRGGFPPR
Consider B1, for which, in assay [1], the binding result is on record as “no binding”.

B2: 6-phosphogluconate dehydrogenase (6PGD), endogenous (enzyme, UniProt P52209 1-483)
chain: T1 sequence
Turning to B2, the binding result in assay [2], in assay [3] and in assay [4] was “binds” in each case.

B3: catalytically inactive 6PGD (6PGD K76R), for the in vitro binding assay (enzyme, UniProt P52209 1-483)
chain: T1 sequence with K76R
With B3, in assay [5], the binding result was “binds”.

B4: recombinant 6PGD (re6PGD) (enzyme, UniProt P52209 1-483)
chain: T1 sequence
With B4, the binding entry in assay [5] is “binds”.
